According to the supplement of paper PMC3334620:
In all, about 33,000 sequences were measured (“E-score (-0.5 to 0.5)”: median about -0.0034, highest 2% from about 0.25 on). The list shows a part of the results.

These sequences were tested against T1, Yap3 (UniProt P38749) (assay: PBM E-score (8-mer binding enrichment) (E-score (-0.5 to 0.5)); higher = stronger / more preferred TF binding). Details: protein concentration: 100 nM; construct: GST-full length.
T1 sequence: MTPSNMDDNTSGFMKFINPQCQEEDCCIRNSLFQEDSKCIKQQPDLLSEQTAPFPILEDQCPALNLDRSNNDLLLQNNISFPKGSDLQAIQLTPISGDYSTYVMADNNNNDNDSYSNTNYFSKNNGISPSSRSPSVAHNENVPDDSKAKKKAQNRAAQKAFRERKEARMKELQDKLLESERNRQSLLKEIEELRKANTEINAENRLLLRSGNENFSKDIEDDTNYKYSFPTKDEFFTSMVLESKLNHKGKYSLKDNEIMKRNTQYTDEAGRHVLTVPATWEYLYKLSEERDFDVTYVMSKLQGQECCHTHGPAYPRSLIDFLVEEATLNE
Procedure, shortened: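 Yeast transcription factors carrying a GST tag, as full-length proteins or DNA-binding domains, were produced by PURExpress in vitro transcription/translation. About 100-200 nM protein was applied to universal all-10-mer Agilent arrays, double-stranded by primer extension on fresh or once-stripped slides. Bound protein was detected with fluorescent anti-GST, and scans were normalised with masliner. The Universal PBM Analysis Suite gave each ungapped eight-base word, pooled with its reverse complement, an E-score, a modified Wilcoxon-Mann-Whitney statistic.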

Sequence	PBM E-score
ATTGAGGG	-0.141
AGGGTTTA	0.0289
TCTTTAAA	0.0906
CAGGTTAG	-0.0433
CTTCGTTA	-0.0671
ATATCTAG	0.115
CCGCTCCC	-0.327
AGACTCAC	-0.162
ATAAGTAT	0.023
CGCGTAAG	0.158
CGACACCA	-0.0506
ATTCGCCG	0.14
CAGCGCCA	-0.196
CAATTATC	0.273
GTAGCGAA	0.0429
ACTTCTAG	-0.233
AAACATAG	-0.0382
ATTCCAAA	0.0683
CGCACTCA	0.0343
CGATAGAG	-0.035
TGACCACA	0.0871
GGCCGGCA	-0.0643

Sequence	PBM E-score
AGCCGTAG	-0.0413
ATTGGGGG	-0.132
GCCAGTAA	-0.206
ACATGTTC	0.0569
ACAATAGA	-0.00187
AAGTGCGG	-0.0626
CCATTGTC	0.0818
CCTATCGA	0.0765
CGGCCGCC	-0.161
AATTGTGC	0.117
ACTTTATG	0.124
CGTCTAGA	-0.191
GCGTACGA	-0.0219
TAATAGGA	0.15
CGTGCTCA	-0.0686
CCACGACG	-0.0372
GATGCCAA	-0.0809
CGTCAGGC	-0.0794
GAGGCCGA	-0.115
CTCCCACC	-0.213
ATAGGCAG	0.027
CGTACTTC	0.179

Sequence	PBM E-score
ACATATCG	0.0873
TACCCGAA	0.11
CGCACCTA	-0.246
ACAACAGA	-0.0683
GAGGTTCA	0.0805
AACCCCCA	-0.371
TGAGAAAA	0.1
GCACTGCC	-0.0495
CATTTCTC	0.126
ATGTGGTG	0.074
CGTTATAG	0.163
GCGGCTCA	0.0715
AAACCGAT	-0.0405
CAGCGGCC	-0.203
CGTGCTTC	0.187
CGTTAAAG	0.121
CCACGTAG	-0.183
AAACTATG	-0.0381
ACGTTAAA	0.212
CCCTGCGC	-0.131
ACTGATTA	0.196
TCGTGTCA	-0.0021

As entered above:
TACCCGAA | PBM E-score: 0.11
CGTTAAAG | PBM E-score: 0.121
CGTGCTTC | PBM E-score: 0.187
AACCCCCA | PBM E-score: -0.371
TCGTGTCA | PBM E-score: -0.0021
ACGTTAAA | PBM E-score: 0.212

Later entries:

Sequence	PBM E-score
GAGACTGC	-0.232
AAGGGGCG	-0.27
AAGACCAA	0.0068
GCGCTTCA	0.0121
GCGCGTCC	-0.0559
CCTAGCCG	-0.0626
CTAAAAAC	-0.0937
AGCCCAGA	-0.0938
ATCACCCC	0.0232
AACTTATC	0.154
CTGTACAG	-0.159
AGGATCCT	-0.14
CTTTGGGA	-0.148
CCGACAGA	0.107
CGCCTCTA	0.142
CGAAGCTA	-0.0129
GCAACAAA	0.193
ACATTACG	0.286
ATGCTTGC	-0.171
CCCCACAA	-0.0402
ACGCCCCT	-0.275
GGCTAGAA	0.0581

Sequence	PBM E-score
ACGACCAC	0.0501
AGAGGCGC	-0.186
AGAGTGAA	-0.0448
GAGCTCAA	0.0384
CGGCTCTC	-0.193
ATCGGGGA	0.0249
AGCGGATA	-0.069
CGGCGCCC	-0.11
GGAATACA	0.0216
ACCAAGAG	-0.0958
CTAACAAG	0.0409
ACGTTCCT	-0.0243
GAAATCCC	-0.0899
ACGAGCTA	-0.253
GGTCTGGA	-0.137
ATGTTAAG	0.105
TACTCATA	0.0212
AGGATTAC	0.125
ATCGCCAC	0.207
CTTCCACA	0.00996
CCTAAAAC	-0.00129
AAGCGCAC	-0.00615
